# Results taken from the supplement of paper PMC5949888.
# Most values lie at the floor of the assay. Slopes are relative: functional sequences can read slightly below zero.
# System: Saccharomyces cerevisiae PS128 hsf1 delta, HSF1(1-493) fusion
# Assay: growth estimate (transactivation domain function in HSF1 fusion, heat-shock survival) (a.u. (slope of normalised read count over time)); higher = stronger growth at 37°C, i.e. more transactivation activity
# Conditions: library: random library
# Experimental: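 Random 60-nt DNA library encoding peptides of up to 20 aa, fused to the C-terminus of yeast HSF1 residues 1-493 (C-terminal TAD deleted) and expressed from the native HSF1 promoter on a CEN plasmid in hsf1-deleted S. cerevisiae PS128. Cells were selected at 37°C on -trp 5-FOA plates for 0, 2, 4, 6 and 8 days and amplicons were sequenced. Growth estimate is the slope of a robust linear fit of total-sum-normalised read counts (normalised to the first time point) over time, using at least 2 replicates. Sequences are classed functional (TAD activity) above a threshold of -0.13, set from stop-codon control sequences.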
row,Substance,growth estimate
1,FRLLTTACPTEITGRYPGRT,< -0.25
2,FRLPATSDYLVVIRSHRPTT,< -0.25
3,FRLS,< -0.25
4,FRLVHISGCNDLHGLM,< -0.25
5,FRMWCF,< -0.25
6,FRNNAIRCSLVP,< -0.25
7,FRPAGIWVYRSSTCPGGQNV,-0.231
8,FRPMPCTEVPRELRACTPHD,< -0.25
9,FRPTLVALATSVCCPKHIST,< -0.25
10,FRQA,< -0.25
11,FRRISETGATV,< -0.25
12,FRRRSIYLALEIFKAIAVLL,< -0.25
13,FRSKWRAANMLTYHVTVATR,< -0.25
14,FRSLKSIGEISRLASELSVP,< -0.25
15,FRSSVTFSESLLDGRVHAWC,< -0.25
16,FRVDRELLRRC,< -0.25
17,FRVNYAIGGLVLRDSASP,< -0.25
18,FRVSDSMMVGCTTLGLCVVR,-0.231
19,FRWGHLTGS,< -0.25
20,FRYNARQWCSPGVPKRLHVG,< -0.25
21,FSAGISQRQDLDTQCYHVYP,< -0.25
22,FSAQLGAWPLTSI,-0.233
23,FSCERPQTQLVTFI,< -0.25
24,FSCH,< -0.25

row,Substance,growth estimate
1,FSDS,< -0.25
2,FSDSSPTSMRT,< -0.25
3,FSEQNVPLGYALSYAVV,< -0.25
4,FSFPP,< -0.25
5,FSGGFG,< -0.25
6,FSILRDSWGENGRRCGHTGV,< -0.25
7,FSKK,< -0.25
8,FSKPQALYNLVTDADEKCSV,-0.217
9,FSLDSRVR,< -0.25
10,FSLGAS,< -0.25
11,FSLRANKLGSKRELAHQWGV,< -0.25
12,FSMQLV,< -0.25
13,FSP,< -0.25
14,FSPCRGVEFYNRFAPN,< -0.25
15,FSPRPVCTGRDHIVCRESVF,< -0.25
16,FSRMV,< -0.25
17,FSRPSPGL,< -0.25
18,FSSCLGPPGKIVA,< -0.25
19,FSSSRLQ,-0.242
20,FSSTRIM,-0.245
21,FSSTVAGR,< -0.25
22,FSVDSTQVYSGRHKLSPIGW,< -0.25
23,FSVEF,< -0.25
24,FSVKSG,< -0.25

# Copied from the listing for reference:
row,Substance,growth estimate
2,FSDSSPTSMRT,< -0.25
3,FSEQNVPLGYALSYAVV,< -0.25
4,FSFPP,< -0.25
5,FSGGFG,< -0.25
6,FSILRDSWGENGRRCGHTGV,< -0.25

# More results:

row,Substance,growth estimate
1,FSVPTIVVNRET,< -0.25
2,FSW,< -0.25
3,FSWN,< -0.25
4,FSWNTGWR,< -0.25
5,FSYYIYERGQGCHLSLFDSV,< -0.25
6,FTALGARCIGFLRRLVETIE,< -0.25
7,FTDPEKSHSRKFQRSESRVH,< -0.25
8,FTDTSPFRITSAHL,< -0.25
9,FTEVHLILRYYFPPVLGNRS,< -0.25
10,FTGGTMRGRFSV,< -0.25
11,FTKVRGRLRVTCQ,< -0.25
12,FTLGTELLEQLRR,< -0.25
13,FTQQYDAALLTLFPQSTDGT,< -0.25
14,FTQVQVCYRSKYDEKSSNEE,< -0.25
15,FTRRRAACRCPRPFVTIIAR,< -0.25
16,FTSAELPLGVLGYLYKFWGV,< -0.25
17,FTSLRPHMPTFHSRVCTAGR,< -0.25
18,FTTGEYWSRLSYSNAQQRQR,< -0.25
19,FTVCAELGD,< -0.25
20,FTVQPRM,< -0.25
21,FTVSISAHLVAPGKAGRKHE,< -0.25
22,FVAGKTPASRN,< -0.25
23,FVAIGHSNGL,< -0.25
24,FVEKGGTDSVSSIFAAEELA,< -0.25
